Laboratory results from paper PMC7271526.
For at least one entry, the source does not settle the construct or the ends of the probe. Negatives hold for the conditions tested. Where a protein sequence is shown, tags need not be part of it.

Target: T1, CiMYB42 (UniProt V4TPP5)
T1 sequence (looked up, limits assumed): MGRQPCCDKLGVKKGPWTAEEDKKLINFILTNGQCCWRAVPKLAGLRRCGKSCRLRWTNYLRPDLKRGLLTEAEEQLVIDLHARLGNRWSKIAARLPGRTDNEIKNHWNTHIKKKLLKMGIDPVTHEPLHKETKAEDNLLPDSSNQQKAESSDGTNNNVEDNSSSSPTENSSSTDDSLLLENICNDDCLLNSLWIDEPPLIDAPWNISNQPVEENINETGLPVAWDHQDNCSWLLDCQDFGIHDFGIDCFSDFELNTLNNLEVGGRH
Test: EMSA
Details: Chemiluminescent EMSA Kit (Beyotime), polyacrylamide gel; pH and temperature not stated; recombinant protein; label: biotin

Sequence	binding result
ACTAGCGTCAACAAATTGTTGAATTTAAA (double strand) [OSC-2]	binds
GTAATTGTAGAATAACTACGCTATGAAATA (double strand) [OSC-3]	no binding
TGCTATAGTATACCAAACACGAGATAATA (double strand) [OSC-1]	no binding
